US20190218308A1
Where a chain is given by its changes, count along the chain named. Results are given in words; binding and its absence hold for the method and conditions named. Some results given as binding are weak or reduced against the parent protein; the word gives no strength.

Key:
CD39 mutant 12 (human) = biological target: T1, CD39 mutant 12 (human) (UniProt P49961); assay: flow cytometry, Hek-293T cells expressing mutant 12
T1 sequence: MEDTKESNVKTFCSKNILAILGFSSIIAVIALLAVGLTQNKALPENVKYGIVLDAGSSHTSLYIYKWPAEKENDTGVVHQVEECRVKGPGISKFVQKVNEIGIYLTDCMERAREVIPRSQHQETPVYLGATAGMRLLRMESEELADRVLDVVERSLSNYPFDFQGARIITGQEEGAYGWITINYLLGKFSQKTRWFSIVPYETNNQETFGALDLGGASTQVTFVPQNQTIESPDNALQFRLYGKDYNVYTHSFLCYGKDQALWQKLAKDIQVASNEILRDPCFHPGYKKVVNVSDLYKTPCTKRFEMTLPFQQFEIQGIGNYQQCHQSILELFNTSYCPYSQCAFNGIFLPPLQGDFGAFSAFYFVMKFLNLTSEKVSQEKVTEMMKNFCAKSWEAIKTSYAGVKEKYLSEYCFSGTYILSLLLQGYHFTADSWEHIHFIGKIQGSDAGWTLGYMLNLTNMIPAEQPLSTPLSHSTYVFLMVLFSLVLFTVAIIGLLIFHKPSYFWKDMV

CD39 mutant 4 (human) = biological target: T2, CD39 mutant 4 (human) (UniProt P49961); assay: flow cytometry, Hek-293T cells expressing mutant 4
T2 sequence: T1 sequence with D150A, E153S, R154A, S157K, N158A, L278F, N388K, K392Q, S393P, A396E

CD39 mutant 13 (human) = biological target: T3, CD39 mutant 13 (human) (UniProt P49961); assay: flow cytometry, Hek-293T cells expressing mutant 13
T3 sequence: T1 sequence with N388K, K392Q, S393P, A396E, A402P, G403A, K405A, E406A

CD39 mutant 10B (human) = biological target: T4, CD39 mutant 10B (human) (UniProt P49961); assay: flow cytometry, Hek-293T cells expressing mutant 10B
T4 sequence: T1 sequence with N388K, K392Q, S393P, A396E, H428A, T430A, A431D, D432A

CD39 mutant 9 (human) = biological target: T5, CD39 mutant 9 (human) (UniProt P49961); assay: flow cytometry, Hek-293T cells expressing mutant 9
T5 sequence: T1 sequence with K288E, K289A, V290A, E315R, N388K, K392Q, S393P, A396E

Measured: binding

B1: antibody I-399 (antibody, V domains shown)
VH: PVQLQQPGAEVVMPGASVKLSCKASGYTFTSFWMNWMRQRPGQGLEWIGEIDPSDFYTNSNQRFKGKATLTVDKSSSTAYMQLSSLTSEDSAVYFCARGDFGWYFDVWGTGTSVTVSS
VL: EIVLTQSPTTMTSSPGEKITFTCSASSSINSNYLHWYQQKPGFSPKLLIYRTSNLASGVPTRFSGSGSGTSYSLTIGTMEAEDVATYYCQQGSSLPRTFGGGTKLEIK
binds: all assays above
